Values of other authors in article PMC6438731, “Extrasynaptic δ‐GABAA receptors are high‐affinity muscimol receptors” (Journal of Neurochemistry, 2019).

Tested on: δ‐GABARs
Conditions: read-out: GABA EC50, 'typically', no reference given; cited from earlier work

**Q.** With NCCCC(=O)O [GABA, gamma‐aminobutyric acid] as the compound, how does the EC50 read?
**A.** 300 to 1000 nM
